Laboratory results: US20230052528A1 (priority 2019, published 2023)
At least one compound was matched to its structure with a doubt left.

Target: T1, wildtype Taspase1 (split Tasp1 WT) (Homo sapiens, UniProt Q9H6P5)
T1 sequence (Q9H6P5 1-233): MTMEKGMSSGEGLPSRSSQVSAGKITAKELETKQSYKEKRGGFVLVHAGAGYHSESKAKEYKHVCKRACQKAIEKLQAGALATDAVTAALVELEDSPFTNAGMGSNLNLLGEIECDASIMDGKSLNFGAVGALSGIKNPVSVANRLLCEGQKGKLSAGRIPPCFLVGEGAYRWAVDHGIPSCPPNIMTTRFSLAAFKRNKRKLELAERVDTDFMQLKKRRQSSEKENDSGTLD
T1 sequence (Q9H6P5 234-420): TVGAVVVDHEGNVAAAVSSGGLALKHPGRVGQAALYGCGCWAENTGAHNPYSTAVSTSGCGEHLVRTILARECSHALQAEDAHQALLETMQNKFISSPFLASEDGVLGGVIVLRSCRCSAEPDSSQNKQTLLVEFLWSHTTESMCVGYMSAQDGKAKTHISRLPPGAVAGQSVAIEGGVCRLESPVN
Method: FIGS. 4A-4B. […] “Taspase1 IC50 (FAM)”=inhibition of cleavage of a Taspase1 peptide substrate; detected by fluorescence resonance energy transfer (FRET). “6.6 mM GSH added”=same assay, in the presence of 6.6 mM glutathione (GSH). […] “Ki”=Ki determined by kinact/Ki measurements, using the Taspase1/FRET-peptide assay described above.
To extend that assay, compounds are also tested in the presence of 6.6 mM GSH as a non-specific, but physiologically relevant, thiol competitor.

C=CS(=O)(=O)N1CCN(Cc2cccc(OC(F)(F)F)c2)CC1 [SMDC723, 1-(3-(Trifluoromethoxy)benzyl)-4-(vinylsulfonyl)piperazine] was tested, and the “Taspase1 inhibition” value was “not a Taspase1 inhibitor”.
